Patent publication US10047063B2, “Method for improving the oxygen-releasing ability of hemoglobin to organs or peripheral tissues in human bodies and a medication thereof” (NATIONAL SUN YAT-SEN UNIVERSITY, priority 2014, dated 2018)
Some entries share one result that the patent states for a list of compounds. For at least one compound, name, drawing or mass did not settle the structure.

Chains of the proteins cited; added tags and fusions are not shown. Residues count along the entry.
UniProt P68871, 2-147 limits assumed: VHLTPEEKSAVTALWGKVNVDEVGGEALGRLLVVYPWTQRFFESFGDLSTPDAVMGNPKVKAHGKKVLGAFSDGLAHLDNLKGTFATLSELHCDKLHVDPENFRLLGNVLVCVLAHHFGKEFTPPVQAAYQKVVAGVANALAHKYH
UniProt P69905, 2-142 limits assumed: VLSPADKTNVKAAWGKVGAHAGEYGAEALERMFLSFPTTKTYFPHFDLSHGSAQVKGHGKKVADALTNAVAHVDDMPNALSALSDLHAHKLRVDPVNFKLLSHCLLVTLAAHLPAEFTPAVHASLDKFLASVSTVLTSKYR

Target: hemoglobin (Homo sapiens, UniProt P68871+P69905)
Assay: Resonance Raman spectroscopy: percentage of high oxygen affinity "R" state of oxygenated hemoglobin treated with compounds
Type: biochemical
Conditions: varying mole ratio to Hb tetramer, 532 nm excitation, oxygen atmosphere
From the text: In order to evaluate the effect of the compound of Formula I on stabilizing the oxygenated hemoglobin in the low oxygen affinity “T” state, compounds including 2,3-bisphosphoglycerate (group A0), Z-butylidenephthalide (group A1), Z-ligustilide (group A2), senkyunolide A (group A3), senkyunolide H (group A4) and senkyunolide I (group A5) are mixed with hemoglobin as a function of their mole ratio to hemoglobin, followed by the resonance Raman spectroscopy measurements at 532 nm excitation wavelength under the oxygen atmosphere. The percentages of the high oxygen affinity “R” state for hemoglobin treated with 2,3-bisphosphoglycerate (shown in FIG. 2a, as reference) and various phthalide phyto-compounds (shown in FIGS. 2b to 2f) are analyzed from the resonance Raman spectroscopy measurements. In more specific, the percentage of high oxygen affinity “R” state for each treated hemoglobin was obtained by fitting a simulated spectrum comprised of adjustable weighing factors of the T and R states of pure hemoglobin to the obtained resonance Raman spectrum of treated hemoglobin.
Moreover, referring to FIGS. 2b to 2f, each of the phthalide compounds, including Z-butylidenephthalide (FIG. 2b), Z-ligustilide (FIG. 2c), senkyunolide A (FIG. 2d), senkyunolide H (FIG. 2e) and senkyunolide I (FIG. 2f) can also stabilize the low oxygen affinity “T” state and inhibit its transformation from the low oxygen affinity “T” state to the high oxygen affinity “R” state with the “R” state suppression efficiency higher than 20% shown in FIG. 2a (group A0).

Row | SMILES | "R" state suppression efficiency
1 | CCC/C=C1\OC(=O)c2ccccc21 [Z-butylidenephthalide] | higher than 20%
2 | CCC/C=C1\OC(=O)C2=C1CC[C@@H](O)[C@H]2O [senkyunolide H] | higher than 20%
3 | CCC/C=C1\OC(=O)C2=C1CC[C@@H](O)[C@@H]2O [senkyunolide I] | higher than 20%
